No constants are given. Whether binding was seen depends on the method and setting.
Molecular target: AKAP-Lbc DH-PH domain (UniProt Q12802)
Assay: SEC; DH-PH domain alone on a size-exclusion column; both purified

- binding: no binding
B1: AKAP-Lbc DH-PH domain (domain or fragment, UniProt Q12802-2 1973-2342)
chain: KQLEAESWSRIIDSKFLKQQKKDVVKRQEVIYELMQTEFHHVRTLKIMSGVYSQGMMADLLFEQQMVEKLFPCLDELISIHSQFFQRILERKKESLVDKSEKNFLIKRIGDVLVNQFSGENAERLKKTYGKFCGQHNQSVNYFKDLYAKDKRFQAFVKKKMSSSVVRRLGIPECILLVTQRITKYPVLFQRILQCTKDNEVEQEDLAQSLSLVKDVIGAVDSKVASYEKKVRLNEIYTKTDSKSIMRMKSGQMFAKEDLKRKKLVRDGSVFLKNAAGRLKEVQAVLLTDILVFLQEKDQKYIFASLDQKSTVISLKKLIVREVAHEEKGLFLISMGMTDPEMVEVHASSKEERNSWIQIIQDTINTLNRD
